Reference: the supplement of paper PMC12889115
The list shows a part of the results. Values are raw readings; no control value is given beside them.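 First-pass screen: polymyxin B was added at a level that permeabilizes the Salmonella outer membrane while sparing the inner membrane. DMSO wells, with and without polymyxin B, defined maximum growth. Because plates differed from one another, each plate's data were ranked separately and the compounds with the lowest OD600 were carried forward as hits.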

Tested on: Salmonella enterica serovar Typhimurium SL1344
Experiment: bacterial growth OD600 after 18 h with compound and polymyxin B; higher = more bacterial growth (less inhibition)
Conditions: 50 µM, Mueller-Hinton broth

SMILES	bacterial growth OD600 (polymyxin B 1 µg/mL)	bacterial growth OD600 (polymyxin B 0.75 µg/mL)
CC(C)Cc1cc(C(=O)NC2CCCN(c3ncccn3)C2)[nH]n1 (centres undefined)	0.87	
O=C(NC1CC1)C1CCCN(C2CCN(CC3CCCC3)CC2)C1 (centres undefined)		0.789
Cc1c(CNCc2cccnc2Oc2ccccc2F)cnn1C		0.835
COCc1nc2cc(NC(=O)Cc3ccccc3)cc(C(=O)NCCCOc3cccnc3)c2n1C		0.807
CC(Cc1cccs1)NC(=O)C1CC(Cc2cccc(Cl)c2)=NO1 (centres undefined)		0.82
CCC1(CCC(=O)N(C)Cc2ccc(Oc3ccccc3)cc2)CCC(=O)N1 (centres undefined)		0.843
O=C(CCN1CCCO1)N1CCCC(CCc2ccccc2F)C1 (centres undefined)		0.768
Cc1noc(C)c1CCCNC(=O)c1ccc(N2CCCC(O)C2)nc1 (centres undefined)		0.798
CCN1CCC(C(=O)N2CCCC(CCc3ccccc3C)C2)CC1 (centres undefined)		0.82
